Earlier results as cited in patent publication US20170165237A1 (DRUGGABILITY TECHNOLOGIES IP HOLDCO LIMITED, priority 2014, published 2017).

Conditions: cited from earlier work

CO[C@H]1C[C@@H]2CC[C@@H](C)[C@@](O)(O2)C(=O)C(=O)N2CCCC[C@H]2C(=O)O[C@H]([C@H](C)C[C@@H]2CC[C@@H](O)[C@H](OC)C2)CC(=O)[C@H](C)/C=C(\C)[C@@H](O)[C@@H](OC)C(=O)[C@H](C)C[C@H](C)/C=C/C=C/C=C/1C [Sirolimus, (3 S,6R,7E,9R,10R, 12R, 14S, 15E, 17E, 19E,21 S,23 S,26R,27R,34aS)9,10,12,13,14,21,22,23,24, 25,26,27,32,33,34, 34a-hexadecahydro-9,27-dihydroxy-3-[(1R)-2[(1 S,3R,4R)-4-hydroxy-3-methoxycyclohexyl]-1-methylethyl]-10,21-dimethoxy6,8,12,14,20,26-hexamethyl-23,27-epoxy-3H-pyrido[2,1-c][1,4]oxaazacyclohentriacontine1,5,11,28,29 (4H,6H,31H)-pentone]
solubility in organic solvents (benzyl alcohol, chloroform, acetone, and acetonitrile): freely soluble | solubility in water (water): insoluble
